Screening data, single-dose tests

Data taken from ChEMBL document CHEMBL3988442, “University of Dundee, Small-Polar-MMV Screening Library” (2021).

Values are the deposited “Percent Effect”, in %. The controls that fix the scale are not given in the record; negative values are as filed. This is an unselected part of the compounds tested. A dash means the value is not listed here; it may have been measured.

A: 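Whole-parasite assay of Trypanosoma brucei over 72 hours; the read-out is not stated. Tested at 30 µM. Direction is inferred from retests: higher values go with stronger inhibition. Values scatter widely below zero; nearly all retest evidence comes from the higher of the two concentrations used. Of about 64,000 compounds tested this way, about 940 (1.5%) reached 50% or more in at least one test.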
B: 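Assay of Toxoplasma gondii numbers, read through their beta-galactosidase reporter with a colour substrate. Compounds at 10 µM. The record gives no direction; the compounds picked for IC50 retests had high values, so higher reads as fewer parasites. Size under these conditions: about 67,000 compounds, about 260 of them at 50% or above in at least one test.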

compound	A	B
O=C(O)C(F)(F)F.[H][C@@]12CCN(c3cccnc3)C[C@]1([H])CN(C(=O)c1cccn1C)C2	-20.24%	2.129%
Cc1ccc(NC2CCN(C(=O)c3ccncc3)CC2)nn1	-	-0.3839%
O=C(O)c1ccc(S(=O)(=O)Nc2cccc(CC(F)(F)F)c2)c(F)c1	-19.29%	-2.518%
COc1ccccc1CN(CC1CCCO1)C(=O)c1ccc(F)cn1 (centres unmarked)	-19.17%	10.86%
Cc1cc(CN2CCN(C(=O)CCc3ccco3)CC2)on1	-3.952%	8.247%
Cc1csc(N2CCN(Cc3cnc(C)s3)CC2C)n1 (centres unmarked)	-47.31%	1.423%
CCc1n[nH]c(C2CN(C(=O)c3ccnc(C4CC4)n3)CCO2)n1 (centres unmarked)	-	-6.442%
CN1Cc2ccccc2CC2(CCN(c3ncccn3)CC2)C1=O	-82.98%	-1.968%
O=C(O)C(F)(F)F.[H][C@@]12CCN(CCOCc3ccccc3)[C@]1([H])CC[C@H](C(=O)NC)O2	-13.51%	20.5%
Cc1cccc(CN2CCc3ncnc(N4CCCC4)c3CC2)n1.O=C(O)C(F)(F)F	-60.86%	0.9091%
COC(=O)[C@@H]1C[C@H](NC(=O)Cn2c(=O)cc(C)c3ccccc32)CN1C	-18.18%	-5.023%
CC(=O)Nc1ccc(CNC(=O)CNCc2snnc2C)cc1	-49.62%	-3.058%
COc1ccc(CN(C(=O)C(C)C)c2cnn(C)c2)c(OC)c1	-0.4612%	0.5907%
O=C(NCc1nn(-c2ccccc2)c2c1CCC2)NC1CCOCC1	-	-7.771%
CN(CCCc1cnn(C)c1)C(=O)C1COc2ccccc2C1 (centres unmarked)	-23.87%	-1.861%
[H][C@]12CN(CCCSC)CC[C@@]1(O)CCN(c1ncccn1)C2	-7.72%	3.557%
CN(C)CCNCC1CCOC(C)(C)C1 (centres unmarked)	-20.23%	12.77%
[H][C@]12CC[C@]([H])(CN(Cc3cscn3)C1)N(C(=O)Cc1cnccn1)C2	-7.485%	-16.65%
COCCS(=O)(=O)N1CCN(c2cccc(O)c2)CC1	28.67%	-14.8%
Cc1ccc(F)c(S(=O)(=O)NCc2cccc(N3CCOC3=O)c2)c1	13.27%	-12.34%
CC(C)N(C)Cc1cnc2n1CCN(Cc1ccco1)C2.O=C(O)C(F)(F)F.O=C(O)C(F)(F)F	-0.4827%	4.648%
O=C(O)C(F)(F)F.[H][C@]12CCN(C(=O)c3occc3C)C[C@@]1([H])OCCN(C1CCOCC1)C2	9.019%	-21.9%
CC(C)(C)S(=O)(=O)c1ccc(N2CCC(n3cccn3)CC2)cn1	-12%	12.7%
O=C(O)C(F)(F)F.[H][C@@]12COC[C@]1([H])[C@H](OCc1csc(C)n1)CN2Cc1nccs1	-15.44%	-4.956%
Cn1cc(CN2CCCN(C(=O)c3cn4ccccc4n3)CC2)cn1	-14.07%	-14.36%
CCOC1CCN(C(=O)c2ccc(-n3ncc(C#N)c3N)cc2)CC1	-13.86%	7.08%
[H][C@@]12CN(C(=O)c3cnc(C)cn3)C[C@@]1([H])N(CC1CCCC1)C(=O)CO2	1.632%	1.724%
Cc1ccc(C(=O)N(C)Cc2ccc(Br)s2)c(=O)[nH]1	-2.52%	19.56%
CCC(O)CN1CCN(C(=O)Cc2nc(-c3ccco3)oc2C)CC1 (centres unmarked)	-9.001%	3.937%
Nc1nccc(NCc2cc3n(n2)CCCN(C(=O)C2CCC2)C3)n1	30.13%	11.14%
COc1ccc(CNc2c(C)nn(C(C)C)c2C)cc1	-17.25%	-2.574%
CSc1cccc(CN2CCC(CCC(=O)Nc3ccccc3)CC2)c1	2.866%	15.25%
CNC(=O)c1ccc(C2CCCN(C(=O)c3sc(C)nc3C)C2)nc1 (centres unmarked)	-1.908%	-24.44%
Cc1ccc(C(=O)NCc2ccc(N3CCCC(C(N)=O)C3)cc2)o1 (centres unmarked)	-11.62%	-8.961%
COC(=O)c1sc2nc3c(c(C(F)(F)F)c2c1N)CN(C(C)=O)CC3	-29.15%	-8.293%
NC(=O)C(NC(=O)CCc1ccc(Cl)s1)c1ccccc1 (centres unmarked)	-9.993%	5.869%
Cn1cccc1C(=O)NC1CCN(c2ccc(OC(F)(F)F)cc2)CC1	18.59%	-4.118%
CCS(=O)(=O)N1CCOC2(COCCN(C(C)=O)C2)C1 (centres unmarked)	-78.79%	0.2697%
Cc1cc(C(NC(=O)CNS(C)(=O)=O)C(C)C)c(C)s1 (centres unmarked)	-12.53%	-4.906%
COCC(=O)N1CCC(c2cccc(Cc3ccc(F)cc3)n2)CC1	-17.61%	1.602%
CCCc1n[nH]c(C2CN(C(=O)c3ccco3)CCO2)n1 (centres unmarked)	-37.06%	-1.569%
CN(C)[C@@H]1C[C@@H](CO)N(C(=O)Nc2cccc(F)c2F)C1	-95.64%	36.88%
CN(Cc1ccon1)C1CCN(c2cccc(-c3cscn3)c2)CC1	5.526%	2.363%
Cc1cnn(CCNCc2csc(-c3ccc(F)cc3)n2)c1	-15.97%	-13.69%
O=C1CCC(CCC(=O)N2CCCC2c2nccs2)=NN1 (centres unmarked)	-7.169%	7.71%
Cc1ccc(O)c(-c2cc(NCCO)nc3[nH]ccc23)c1	-9.914%	-20.47%
CN(Cc1cn2c(n1)CN(C(=O)c1ccc[nH]1)CC2)Cc1ccco1.O=C(O)C(F)(F)F	-74.2%	-0.5643%
CCC(CC)c1cc(CNC(=O)N2CCCC(C(=O)NC)C2)on1 (centres unmarked)	-60.36%	-9.565%
O=S(=O)(NCC(O)c1ccc2c(c1)CCO2)c1ccccc1F (centres unmarked)	2.185%	-8.384%
O=C(O)Cc1cnc(-c2c(Cl)cccc2Cl)s1	-43.04%	-5.527%
Cc1nn(C)c(Cl)c1C1CCCN1Cc1cn2ccsc2n1 (centres unmarked)	-	-3.232%
CCc1nnc2n1CCN(CC(=O)Nc1cc(C)on1)C2	-8.705%	2.432%
CN(CC(=O)N1CCCC1c1noc(C2CC2)n1)C1CC1 (centres unmarked)	-27.54%	-
O=C(O)C(F)(F)F.O=C(O)C(F)(F)F.O=C(O)C(F)(F)F.[H][C@@]12CN(Cc3ccc(F)cc3)C[C@]1([H])OCCN2CCN1CCCC1	-10.96%	-0.06313%
O=C(NCC1CCS(=O)(=O)C1)c1ccco1 (centres unmarked)	-26.38%	-11.62%
[H][C@@]12CCCO[C@]1([H])[C@H](N1CCOCC1)CN(C(=O)c1cc(C)[nH]c1C)C2	-45.7%	0.3386%
O=C(O)C(F)(F)F.O=C(O)C(F)(F)F.[H][C@]12CCN(Cc3cccs3)[C@@]1([H])CC[C@@H](COc1cccnc1)O2	35.12%	-1.387%
Cc1cc(C(=O)NC2CCc3nc(C)cn3C2)[nH]n1 (centres unmarked)	-4.3%	3.992%
O=C(NCC1CC1)C1CN(C(=O)Nc2ccccc2)CC12CCOCC2 (centres unmarked)	-6.035%	-11.47%
CN1CCN(Cc2cnc3n2CCN(C(=O)c2cnccn2)C3)CC1	-4.473%	-12.08%
COC(=O)N1CCC(Oc2ccc(C(=O)NCCN(C)C)cc2Cl)CC1	9.762%	7.594%
CC(C)Oc1cccc(C(=O)Nc2nncs2)c1	-2.574%	-8.707%

4 of the entries, repeated:

{"compound": "Cc1ccc(NC2CCN(C(=O)c3ccncc3)CC2)nn1", "B": -0.3839}
{"compound": "CN1Cc2ccccc2CC2(CCN(c3ncccn3)CC2)C1=O", "A": -82.98, "B": -1.968}
{"compound": "CNC(=O)c1ccc(C2CCCN(C(=O)c3sc(C)nc3C)C2)nc1", "stereo": "centres unmarked", "A": -1.908, "B": -24.44}
{"compound": "COc1ccccc1CN(CC1CCCO1)C(=O)c1ccc(F)cn1", "stereo": "centres unmarked", "A": -19.17, "B": 10.86}